# In PubChem BioAssay AID1508600 (Functional Genomics Laboratory (NCATS/FGL), 2020):
# Among all 53,000 sequences or so, about 3,700 (7%) were called active.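 The calls were made as follows: active = gene knockdowns whose robust z-score for IL-1 alpha signal is at least 2 or at most -2, so actives lie on both sides; inactive = the rest.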 This is one part of the list.
# Test: Components of the Cytosolic LPS Sensing Pathway: Gene Identification via Genome-wide siRNA Screen;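 also: robust z of the log signal after scaling to non-targeting control siRNA wells of the plate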
# Details: RAW264.7 macrophages, IL-1a HTRF, actives lie on both sides, screened at 100 nM (by protocol), cells primed 5 h with Pam3CSK4 first
# Summary of the method: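 IL-1a HTRF of supernatants after 24 hour LipidA transfection of Pam3CSK4-primed (5 hours) RAW264.7 cells, 48h post-siRNA transfection (100 nM). Scores: percent of plate negative-control median, then log-based robust z-score.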
row,Sequence,z-score
1,GGCAAUUGGCUUAAACACATT against Serpinb9c,inactive: -1.35
2,CGGCUACGAGUGUGAACUGTT against Fgf7,inactive: 0.557
3,GGAAGAUGACAAGAUCUAUTT against Rnf113a1,inactive: 0.782
4,GUGUGAACAGAGGCAGAAATT against Xlr3a,active: -2.46
5,GGUGGACUUCAACCUGAUUTT against Nodal,inactive: 0.22
6,GGCUUAUAUCUGAUUGAUGTT against Rom1,inactive: -1.17
7,GGAGGUUUAUAAAAUCGACTT against Tgfb2,inactive: 1.14
8,GGUGAAGCAGUUUGACUUCTT against Rbm18,inactive: 0.0154
9,GCCGUAUGGCAGGUAUUUUTT against Tmem266,active: 3.27
10,GGUAUUGAAUACAGGAAUUTT against Csnk1g3,inactive: 1.33
11,GGAGCAGAUUAAGUGCCUGTT against Krt82,inactive: 0.247
12,CCAAUAUCUCCAAAUAGAATT against Atp8b1,inactive: -0.974
13,GGGCUUAUAAUAGAAGUCUTT against Dpy19l3,inactive: -0.138
14,GGCUCAAGUUUGGAGUUUUTT against 2410137M14Rik,inactive: 0.501
15,CCUCUAAAUCAAUGAGACATT against Zfp30,inactive: 1.91
16,CCAGUGUUGGUAACAAUAUTT against Stat4,inactive: 0.0489
17,GGUGAAGUCCCAGCUUGAATT against Cstb,inactive: -0.509
18,GGAUUUAGCCAAUCAAUCUTT against Cdc14b,inactive: -0.872
19,GGAAAUCCAUGAGAAGGUGTT against Ctbp2,inactive: 0.732
20,GGCUGAAUGACUGCACUGGTT against Vamp5,inactive: -1.03
21,GGAUGUGGAUGCUUACACCTT against Cdc23,inactive: 0.0904
22,GGAAAUUCUGAGGAAGAUUTT against Olfr744,inactive: -0.844

row,Sequence,z-score
1,GCACUUAUCGACUAUUUCATT against Aff3,inactive: -1.06
2,CCUCUCUACAUAAAGUGCATT against Tmem174,inactive: -0.651
3,GGAACACACACUCUGGAAUTT against Tmem239,inactive: -1.17
4,GGCCUGAAAUAUAUGCUGGTT against Cst7,inactive: -1.33
5,GGGCCAAUAAAGCAACUGCTT against Laptm5,inactive: 0.704
6,GGAGAAGAAGAAAAGAACATT against Pom121,inactive: 1.02
7,GGUAGAAUCCGGUUACCACTT against Tox,inactive: 0.704
8,CCUCUUGGCCUCCUUUGAUTT against Tas2r143,inactive: -0.984
9,GUGGACAUCCUCUCUGUCATT against Tmem54,active: -2.23
10,CCUAGAUGACACUUGGGUGTT against Nup35,inactive: -1.4
11,GGGAGACUUUGUACGGAAGTT against Gars,inactive: 1.89
12,GCUAAUUAUUGAGUAUGCGTT against Klhl10,inactive: -0.77
13,CCAUGGCUUAAAAGCCGAATT against Mapt,inactive: 0.606
14,GUGUAUGCGCUGAUCCUAUTT against 1700020N01Rik,inactive: 0.181
15,GGUUAUGAUUGGUUUGAAGTT against Cisd2,inactive: -0.629
16,GGUUGGCGAGACUUCUACGTT against Pp2d1,inactive: 0.885
17,GGGAGCUAGCAAAAUCGGATT against Eif4g3,inactive: 0.714
18,GGAACUGCUCAUAAAAACATT against Evi2b,inactive: 0.0355
19,GGCGAUCCACAAGUACAAUTT against Polb,inactive: 0.947
20,GGACAAAAGAAAAGUAUCGTT against Cdx4,inactive: -1.13
21,GGUUAAGAUUCCAGAGCCATT against Prune1,inactive: -0.297
22,GCUAAUACUGAAAUCGAUGTT against Ccdc73,inactive: 1.02

row,Sequence,z-score
1,GGGACUCUGAUGGUUUUGATT against Dapp1,inactive: 1.07
2,GCACCAUGUCAGGAAGUGUTT against Cd300a,inactive: -0.613
3,CCUAUGGAAGGUUUAAGAUTT against Ptpn21,inactive: 0.638
4,GGCUUCAGCAAAGACAAUGTT against Ache,inactive: -1.07
5,GCGAUUUUAACAUCUGGAATT against A930018P22Rik,inactive: 0.139
6,ACACCUGCCUGCAUCUACUTT against Tcp10a,inactive: 1.5
7,CCUGUUGCUAAUCUCACAATT against Fcgr3,inactive: 0.291
8,GGGAAGAGUUUCACGCUCATT against Runx3,inactive: 1.26
9,GCACGAUGUACCUGAAUCUTT against Ifitm5,inactive: 0.387
10,GGUCCAAGAGAAAUGUGUATT against Hacd4,active: -2.55
11,GCCAUUGGAAUUUUGAAAUTT against Cfap206,inactive: 0.514
12,GGCACAAGUAACAGGCUCATT against Egfr,inactive: -1.96
13,GGUGGUAGAUAUUGUCCAUTT against Olfr420,inactive: 0.488
14,GGUCUAGGUCUGAAGAUCCTT against Stxbp4,inactive: 1.51
15,GGAACAAAGAUUGAGAGAATT against Sltm,inactive: -1.62
16,GCCUUUCAUGGAUUAACCUTT against Gsdmc,active: -2.03
17,GGAUCCAGAGGCUGUUAAATT against Casp9,inactive: -0.813
18,GUCUUUUUUCUUUUUGACCTT against Olfr168,inactive: -0.96
19,CCAGCAUAUCUACUGUUCUTT against Vmn1r235,inactive: 0.503
20,GGCGACCUUUGUGUUUCCUTT against Vwa5a,inactive: -0.419
21,GGGAUGCUUUGUGGCUGUATT against Olfr837,inactive: -0.143
22,GGUCUAUGCGAUGCUAUACTT against Sarm1,inactive: -0.508

row,Sequence,z-score
1,GGGAUGUUCUAUGUAAUAATT against Cog4,inactive: 0.627
2,GCCAAAUUUGUCAUCCACUTT against Macroh2a2,inactive: -0.906
3,GGAGCUGGAGAAGUUACUUTT against Amigo3,active: 2.06
4,CCAUCAAGAGGUAUAAUCUTT against Flad1,inactive: 1.75
5,CCUAAGAUAGACUAAAUCGTT against 1700001G17Rik,inactive: 0.171
6,GCAACCAUCCAACAACCUGTT against Prkca,inactive: 0.94
7,GGCCAUCUGUGAAAAAUUCTT against Dhcr24,inactive: -1.06
8,GCUCUUGUAAAUUUGUGAATT against Usp10,inactive: -0.331
9,GGAGCUAAGUCGAAGCUUCTT against Gmppa,inactive: 0.0448
10,GGUCCAUUUUUUGGUGUGCTT against BC051665,inactive: -0.46
11,CCUGCCCUCUUUUAAAUAATT against Ap3s1,inactive: -1.96
12,GGAGACUAAUGAACAGAAATT against Fgd4,inactive: 0.39
13,GCUCUCUGAAAGAGUAUUGTT against Khdrbs2,inactive: 0.963
14,GCCCAAUUGGCUUUUGUUATT against Olfr1305,inactive: 0.736
15,CGGAGUAAACAAUACAGUCTT against Gnmt,active: 2.26
16,CCUUUUAGCUCUGUGUAUUTT against Gldc,inactive: -0.0983
17,CGUGGAUUACCACCCUAAGTT against Klrc2,inactive: -0.129
18,GGACGUGAAUGUGUUUGACTT against Cyp26b1,inactive: 0.795
19,GGCUUGGUGGGACAGAUAUTT against Ccdc51,inactive: -1.82
20,GGAGCAGGAAGUAUGAAUGTT against Gpr39,inactive: -0.0371
21,GGAGCAGUCUAUCUUUGGUTT against Dbn1,inactive: 1.3
22,GGACAAUUGAAUACCUAGATT against Hadha,inactive: 0.151

row,Sequence,z-score
1,CCUGAGUCUCGGUUCACAATT against Kif12,active: -2.13
2,GGAUUAAGAAAGAAACAGGTT against Zfp438,inactive: -0.387
3,GGAAGCGUAUUACGAAAGATT against Prpf18,inactive: 0.565
4,GCUCAUGACCCAUAUGUGGTT against Cryaa,inactive: -0.933
5,GCGAGUUAUUUGGCUCCGATT against Pla2g4e,inactive: -1.27
6,GGAGGAGUUUGACUUCGACTT against Alox12,inactive: -0.109
7,GGUUCGUCGCCUUUUAGGGTT against Alx4,active: 3.74
8,GGAAGGAAGGAAUAAAACUTT against Fitm2,inactive: -0.981
9,ACAUACCCGUGAAUGGCUCTT against Ffar1,inactive: -0.757
10,GGUUGGAGUUCAACAGAUGTT against Ksr1,inactive: 0.874
11,GGCGGGAGUACUAAAUGAATT against Eppk1,inactive: 1.07
12,CGGCAAUUCCAGAAAUGAUTT against Rcc1l,inactive: -1.67
13,GCUUCAAACUAGUUCCAAATT against H1f8,inactive: 1.65
14,GCAGAUUCUCCGAUUACACTT against Fbxw8,inactive: -0.294
15,GCAAUUAAGGUAGAGUCUGTT against Rassf1,inactive: -1.81
16,GGACAGCAUCCGAAAAGUGTT against Thbs1,inactive: -1.47
17,GGAAGACAAUAAGAAGUGGTT against Niban2,inactive: -0.576
18,CCUAUUUGGCCAUUAUCCATT against Atxn7l1,inactive: 0.848
19,GGAGCUUACUACAAAGCUATT against Gnb4,inactive: 0.529

# 5 records picked at random from those above, as already listed:
row,Sequence,z-score
12,GGAGACUAAUGAACAGAAATT against Fgd4,inactive: 0.39
18,CCUAUUUGGCCAUUAUCCATT against Atxn7l1,inactive: 0.848
21,GGGAUGCUUUGUGGCUGUATT against Olfr837,inactive: -0.143
3,CCUAUGGAAGGUUUAAGAUTT against Ptpn21,inactive: 0.638
21,GGUUAAGAUUCCAGAGCCATT against Prune1,inactive: -0.297
